According to PubChem BioAssay AID504834 (National Center for Advancing Translational Sciences (NCATS), 2011):
Several values for one entry are separate records, joined by “and”; a condition that tells them apart may be missing. Equal values may be shown once. In all, about 320,000 compounds went through this assay and about 22,000 (6.9%) were called active. Inconclusive results, whose numbers are uncertain, are shown with a selection of clear calls. Calls follow the shape of the dose curve; as a rule, active = well fitted inhibition curve with a large enough effect; inconclusive = small, poorly fitted or top-dose-only effect, or another doubt; inactive = no such curve, though single readings can be large or run the other way. Where the call is inconclusive, the potency comes from a doubtful curve fit. Where a structure was tested more than once in an assay, its records may differ in their call.

assay: Primary qHTS for delayed death inhibitors of the malarial parasite plastid, 96 hour incubation; settings: P. falciparum luciferase reporter growth; series mostly up to 28.7 µM
In short: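 Delayed-death screen, second-generation endpoint: infected erythrocytes, 2% hematocrit, 0.05% parasitemia final; 96 hours at 37 C, 5% CO2; luciferase detection reagent; luminescence decrease equals reduced growth.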
% is scaled to controls: 0 for no effect and ±100 for the full control effect; potency is read from the fitted curve at half-maximal effect.

SMILES	Potency	activity change, negative = inhibition
CCO/C([O-])=N/c1sn[n+](C)c1C	inactive	–
COc1cc(/C=C/C(=O)OCC(=O)N2CC3(C)CC2CC(C)(C)C3)ccc1O (configuration not stated)	inconclusive: 9.28 µM [inhibitor, single point]	–
O=C(NCc1ccco1)C12CN(Cc3ccccc3)CC1C(c1ccc([N+](=O)[O-])cc1)=NO2 (configuration not stated)	inactive	–
COc1ccc(C(=O)N2CCN(c3ccccc3)CC2)cc1S(=O)(=O)N1CCOCC1	inactive	–
C=CCOc1ccc2ccccc2c1CNCCCN1CCOCC1	inconclusive: 18.5 µM [inhibitor, single point]	–
O=C(NC1CCCCC1)N1CCC(n2cnc3ccccc32)CC1	inconclusive: 0.522 µM [inhibitor, partial curve, poor fit]	–
CC(=O)NC(CC(=O)OCC(=O)N1CCc2ccccc21)c1ccccc1 (configuration not stated)	inactive	–
COc1ccc(C2=NN(C(=O)c3cccs3)C(c3ccccc3O)C2)cc1 (configuration not stated)	inconclusive: 11.7 µM [inhibitor, single point]	–
N#C/C(=C\c1ccc(F)c(Br)c1)C(=O)NC1CC1	inconclusive: 10.4 µM [inhibitor, single point]	–
Cc1cc(C)c(NC(=O)CSc2nc(COc3ccccc3)nc3ccccc23)c(C)c1	inconclusive: 18.5 µM [inhibitor, single point]	–
COc1ccc(OC)c(CCNC(=O)c2ccc(NC3=NC4CS(=O)(=O)CC4S3)cc2)c1 (configuration not stated)	inactive	–
CC(C)OCCCNC(=O)c1c(N)n(Cc2cccs2)c2nc3ccccc3nc12	active: 11.7 µM	–
CCOc1ccc2[nH]c(=O)c(C(c3nnnn3C3CCCCC3)N3CCN(C)CC3)cc2c1 (configuration not stated)	inconclusive: 16.5 µM [inhibitor, partial curve, poor fit]	–
CSc1ccccc1-n1nnnc1SCC(=O)NCc1cccs1	inconclusive: 18.5 µM [inhibitor, single point]	–
Cc1ccc(-c2nnc(N3CCOCC3)c3ccccc23)cc1S(=O)(=O)NCc1cccnc1	–	inactive: 37.6% [at 5.75 µM]
N#CC1=C2SCC(O)(c3ccccc3)N2C(=O)CC1c1ccccc1 (configuration not stated)	inconclusive: 5.22 µM [inhibitor, partial curve]	–
CCCOP(=O)(c1ccc(N(C)C)cc1)C(O)c1ccc(Cl)cc1Cl (configuration not stated)	active: 13.1 µM	–
O=c1c2nncn2c2cc(C(F)(F)F)ccc2n1CCNc1ncc(C(F)(F)F)cc1Cl	inconclusive: 18.5 µM [inhibitor, single point]	–
CC(=O)Nc1ccc2nc(C)n(Cc3ccc(Cl)cc3)c(=O)c2c1	inactive	–
CC(CN1CCN(C)CC1)OC(=O)c1ccccc1 (configuration not stated)	inactive	–
COc1ccc(C(=O)OCc2c(F)cccc2Cl)cc1S(=O)(=O)N1CCOCC1	inconclusive: 11.7 µM [inhibitor, single point]	–
COc1ccc(C2(CNC(=O)c3ccco3)CCOCC2)cc1	inconclusive: 6.57 µM [inhibitor, partial curve, poor fit]	–
CCOc1ccc(NC(=O)CSc2nnc(Cc3csc(C)n3)o2)cc1	inactive	–
Cc1nn(CC(=O)NCC(C)c2ccccc2)c(=O)c2cc3occc3n12 (configuration not stated)	inconclusive: 18.5 µM [inhibitor, single point]	–

SMILES	Potency	activity change, negative = inhibition
CCCCNC(=S)Nc1cccc2cnccc12	inactive	–
CCN(c1ccccc1)S(=O)(=O)c1cccc(C(=O)NCC(c2ccco2)N2CCCC2)c1 (configuration not stated)	inconclusive: 4.15 µM [inhibitor, full curve]	–
O=C(NCc1cccs1)C(NS(=O)(=O)c1cccc2nsnc12)c1ccccc1 (configuration not stated)	inconclusive: 13.1 µM [inhibitor, single point]	–
Cc1cc(Cl)ccc1Oc1nccc(N(C)C)c1C#N	inconclusive: 13.1 µM [inhibitor, single point]	–
CCOc1ccc(-c2nc(N)ncc2Oc2ccccc2Br)c(O)c1	active: 3.29 µM	–
CS(=O)(=O)N(CC(=O)NC1CCCCC1)c1cccc(F)c1	inconclusive: 4.15 µM [inhibitor, single point]	–
CCCn1nnc(NC(=O)c2ccc(-c3cc(Cl)ccc3Cl)o2)n1	inactive	–
O=C1C=C(c2ccc(Cl)cc2)OC2(CCCC2)O1	active: 13.1 µM	–
Cc1ccc(NC(=S)N(Cc2ccccc2)C(C)C)cc1	inconclusive: 0.104 µM [inhibitor, full curve, poor fit]	–
Cc1ccc2c(c1)C(c1ccccc1)=NCC(=O)N2	inactive	–
COc1ccc2cc(-c3ccccc3)ncc2c1	inactive	–
Cc1cc(Cl)ccc1OC(C)C(=O)NCCCn1ccnc1 (configuration not stated)	inconclusive: 18.5 µM [inhibitor, single point]	–
COc1ccccc1NC(=O)CN1CCN(c2ccccc2)CC1	inconclusive: 1.04 µM [inhibitor, partial curve, poor fit]	–
CN(Cc1nccn1C)C(=O)C1CCC(=O)N(CCc2ccc(Cl)cc2)C1 (configuration not stated)	inconclusive: 13.1 µM [inhibitor, single point]	–
COc1cccc(-c2cccc(NC(=O)C3CCN(Cc4cnn(C)c4)CC3)c2)c1	inconclusive: 16.5 µM [inhibitor, partial curve, poor fit]	–
O=C(NCc1ccc2c(c1)OCO2)c1c(O)c2cccc3c2n(c1=O)CCC3	inconclusive: 14.7 µM [inhibitor, partial curve, poor fit]	–
Cc1ccccc1NC(=O)c1csc2c1CCCC2	inactive	–
O=C(CCl)N1CCCC1c1ccc2c(c1)OCCO2 (configuration not stated)	inconclusive: 0.294 µM [inhibitor, full curve]	–
COc1ccc(C(CNC(=O)c2cc3c(s2)CCCC3)N2CCOCC2)cc1 (configuration not stated)	inconclusive: 10.4 µM [inhibitor, single point]	–
COc1ccccc1C(=O)Nc1ccnn1C1CCN(C(=O)c2ccoc2C)CC1	inconclusive: 18.5 µM [inhibitor, partial curve, poor fit]	–
COc1ccc(CCNC(=O)CSc2nc(N)c(C#N)c(-c3cccs3)c2C#N)cc1OC	inactive	–
CCCCNC(=O)c1onc(CSc2ccncc2)c1C(=O)NCCCC	inactive	–
N#CC(C#N)=C(Nc1ccc(F)cc1)SCc1cccc(F)c1	inconclusive: 18.5 µM [inhibitor, single point]	–
COc1ccc(Cn2nnnc2C(c2ccc3ncccc3c2)N2CCN(C3CCCCC3)CC2)cc1 (configuration not stated)	inactive	–

SMILES	Potency	activity change, negative = inhibition
Cc1cc(Cl)ccc1OCC(=O)Nc1nc(-c2cccs2)cs1	inactive	–
Cc1ccc2c(CN3CCCCC3CCO)cc(=O)oc2c1 (configuration not stated)	inactive	–
CCN(C(=O)CN1C(=O)NC2(CCc3ccccc32)C1=O)C1CCCCC1 (configuration not stated)	inactive	–
COc1cc(/C=C2\CCC/C(=C\c3ccc(O)c(OC)c3)C2=O)ccc1O	inactive and active: 5.36 µM	–
CCCCS(=O)(=O)N1C2=NC(C(=O)OC)=C(C(=O)OC)[C@@H]3N(C)c4ccc(OC)cc4[C@]23C[C@H]1C(=O)OC	inconclusive: 18.5 µM [inhibitor, single point]	–
Cn1nc(C(C)(C)C)cc1C(=O)NNC(=O)c1ccc(C(F)(F)F)cc1	inactive	–
CCCC(CCC)C(=O)Nc1ccncc1	inconclusive: 11.7 µM [inhibitor, single point]	–
O=C(c1ccc(-c2ccccc2)cc1)c1ccc([N+](=O)[O-])cc1	inactive	–
CN(Cc1c(O)ccc2c1oc(=O)c1ccccc12)C1CCCCC1	inconclusive: 0.0738 µM [inhibitor, full curve, poor fit]	–
COc1ccc(-c2[nH]ncc2N=Nc2cc(C)cc(C)c2)cc1	inconclusive: 6.57 µM [inhibitor, partial curve, poor fit]	–
Cc1nn(-c2ccccc2)c(N2CCCC2)c1/C=C1\N=C(c2ccc(OC(C)C)cc2)OC1=O	inconclusive: 13.1 µM [inhibitor, single point]	–
COc1cc(OC)c(C(=O)Nc2ccccc2-c2ccccc2)cc1OC	inconclusive: 8.28 µM [inhibitor, partial curve, poor fit]	–
CC1CCCC(C)N1C(=O)COC(=O)CNC(=O)c1sc2ccccc2c1Cl (configuration not stated)	inconclusive: 3.29 µM [inhibitor, single point]	–
COc1ccc(CNC(=O)C(c2ccco2)N(Cc2cccs2)C(=O)Cc2cccs2)cc1 (configuration not stated)	inconclusive: 9.28 µM [inhibitor, single point]	–
Cc1ccc2cc3cc(C(=O)NCCCN4CCCC4)oc3nc2c1	inactive	–
CSc1nc(-c2ccccc2)nc(C(C)C)n1	inactive	–
CN1C(C(=O)Nc2ccccn2)=C(O)c2sccc2S1(=O)=O	inconclusive: 3.61 µM [inhibitor, partial curve] and inconclusive: 3.29 µM [inhibitor, full curve, poor fit]	–
O=C(N/N=C/C=C\c1ccccc1)c1cnccn1	inactive	–
Cc1cccc(NC(=O)NC2CC(=O)N(c3ccc4c(c3)OCCO4)C2)n1 (configuration not stated)	inconclusive: 18.5 µM [inhibitor, single point]	–
COc1ccc2cc(C(=O)C3CCCN(C(=O)c4sc(C)nc4C)C3)ccc2c1 (configuration not stated)	active: 13.1 µM	–
COc1ccc(NC(=O)CSc2ccc3nnc(-c4cccnc4)n3n2)cc1OC	inactive	–
CCC1CCCCN1C(=O)CSc1nnc(-c2ccc(OC)cc2)o1 (configuration not stated)	inconclusive: 0.329 µM [inhibitor, full curve, poor fit]	–
COc1nnc(-c2ccc(C)c(S(=O)(=O)NC(C)(C)CO)c2)c2ccccc12	inconclusive: 10.4 µM [inhibitor, single point]	–
COc1ccc(Nc2nnc(-c3ccc(C(N)=O)cc3)c3ccccc23)cc1	inconclusive: 11.7 µM [inhibitor, single point]	–

Single entries from the list.
Potency with CCCOP(=O)(c1ccc(N(C)C)cc1)C(O)c1ccc(Cl)cc1Cl (configuration not stated) is entered as active: 13.1 µM
Potency with N#CC1=C2SCC(O)(c3ccccc3)N2C(=O)CC1c1ccccc1 (configuration not stated) is entered as inconclusive: 5.22 µM [inhibitor, partial curve]
Potency with CN(Cc1nccn1C)C(=O)C1CCC(=O)N(CCc2ccc(Cl)cc2)C1 (configuration not stated) is entered as inconclusive: 13.1 µM [inhibitor, single point]
